In paper PMC4495710:
No constants are given. Whether binding was seen depends on the method and setting. Binding seen in cells or lysates may run through a third protein. Some binding calls cover weakened binding; strength is not graded here.

Molecular target: T1, scavenger receptor A (human (endogenous in THP-1)) (UniProt P21757)
T1 sequence: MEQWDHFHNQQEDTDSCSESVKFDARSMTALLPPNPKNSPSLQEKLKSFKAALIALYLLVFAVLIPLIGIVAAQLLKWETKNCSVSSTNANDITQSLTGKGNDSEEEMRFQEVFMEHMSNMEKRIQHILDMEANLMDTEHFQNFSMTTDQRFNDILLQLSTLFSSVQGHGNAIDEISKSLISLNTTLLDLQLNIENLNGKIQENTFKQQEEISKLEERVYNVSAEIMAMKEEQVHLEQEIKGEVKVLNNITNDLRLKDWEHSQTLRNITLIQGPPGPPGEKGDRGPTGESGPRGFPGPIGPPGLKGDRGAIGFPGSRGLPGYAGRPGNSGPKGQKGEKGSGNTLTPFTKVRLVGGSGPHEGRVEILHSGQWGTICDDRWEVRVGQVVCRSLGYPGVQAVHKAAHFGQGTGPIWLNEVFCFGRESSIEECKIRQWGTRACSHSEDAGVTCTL
Assay: co-IP; THP-1 cell lysate in RIPA buffer, protein A/G agarose, 4 °C overnight; blot with anti-wnt1 or anti-SRA; cells with or without LPS; the methods name anti-p65 as the precipitating antibody

- binding: binds
B1: wnt1 (ligand, UniProt P04628 28-370)
chain: ANSSGRWWGIVNVASSTNLLTDSKSLQLVLEPSLQLLSRKQRRLIRQNPGILHSVSGGLQSAVRECKWQFRNRRWNCPTAPGPHLFGKIVNRGCRETAFIFAITSAGVTHSVARSCSEGSIESCTCDYRRRGPGGPDWHWGGCSDNIDFGRLFGREFVDSGEKGRDLRFLMNLHNNEAGRTTVFSEMRQECKCHGMSGSCTVRTCWMRLPTLRAVGDVLRDRFDGASRVLYGNRGSNRASRAELLRLEPEDPAHKPPSPHDLVYFEKSPNFCTYSGRLGTAGTAGRACNSSSPALDGCELLCCGRGHRTRTQRVTERCNCTFHWCCHVSCRNCTHTRVLHECL
